Laboratory results: PubChem BioAssay AID1259286 (Sanger Institute, 2017)
In all, the deposit lists 794 reagents; below is an unselected part. In the full data, 17 (2.1%) were called active. 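Calls use knock-down alone only; synergy above 0.15 marked separately; viability seems capped at control level; exposure time not given.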 Further read-outs or replicates are left out here. Not stated in the record: the amount of reagent, the time to read-out.

- Aim: 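Kinases whose loss adds to targeted drug killing of colorectal cancer cells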 (primary screen)
- Cells: NCI-H630 human colorectal cancer cells
- Reagents: siRNA pool against human genes
- Conditions: anchor drugs BYL719 at 1 µM, cetuximab at 5 µg/ml or trametinib at 10 nM, or DMSO vehicle alone; exposure time not given
- Measured: 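Viability relative to non-targeting pool wells, averaged over replicates, with robust z-score for knock-down alone and a synergy score for each anchor drug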
- Reading the numbers: viability z-score, knock-down alone: higher = more viable cells, weaker knock-down effect; viability vs control, knock-down alone: higher = more viable cells; synergy score with trametinib: higher = stronger synergistic killing with trametinib
- Hit rule: 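a gene is called essential when its knock-down-alone viability robust z-score is below -3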
- Calls: active = essential when knocked down alone; inactive = not essential alone

gene	PubChem SID	viability z-score, knock-down alone	viability vs control, knock-down alone (fraction of control)	synergy score with trametinib	outcome
PRPS1	SID56479145	0.464	1	-0.0479	inactive
NME4	SID56479075	0.464	1	-0.00557	inactive
IP6K1	SID135621239	0.464	1	-0.0479	inactive
STK38	SID152149792	-0.507	0.963	-0.00807	inactive
BMX	SID152147462	0.116	0.987	-0.0604	inactive
DUSP21	SID134312829	0.464	1	-0.0391	inactive
CDKN2C	SID56478606	-2.35	0.894	-0.0462	inactive
LTK	SID135620624	0.464	1	-0.0199	inactive
NUAK1	SID56478923	0.464	1	-0.0479	inactive
ITPKC	SID56479112	-0.105	0.978	-0.0263	inactive
PFKP	SID56479236	0.464	1	-0.0222	inactive
SLK	SID56478731	0.464	1	-0.0479	inactive
TEK	SID152152932	0.464	1	-0.0254	inactive
FN3K	SID56479098	-0.641	0.958	-0.0655	inactive
CAMK2B	SID135620913	0.464	1	-0.0425	inactive
PDPK1	SID135620604	-0.691	0.956	-0.00522	inactive
MARK1	SID152146970	0.464	1	-0.0479	inactive
PCBP1	SID134316528	-0.376	0.968	-0.0781	inactive
MAST4	SID135625002	0.464	1	-0.00259	inactive
PIK3CD	SID135621250	0.464	1	-0.0479	inactive
PIM1	SID56478736	0.464	1	-0.0479	inactive
PAK1	SID135620692	0.464	1	-0.00928	inactive
PLK3	SID56478615	-2.38	0.892	-0.0365	inactive
ITPKB	SID56479111	0.339	0.995	-0.0524	inactive
MAPK3	SID135620708	0.464	1	-0.0479	inactive
AMHR2	SID56478996	0.464	1	-0.0342	inactive
EPHB3	SID56478503	-0.425	0.966	-0.0474	inactive
AK2	SID56479162	0.464	1	-0.0479	inactive
RPS6KA5	SID135620863	0.464	1	0.0389	inactive
RPS6KA2	SID135620862	0.464	1	0.0504	inactive
RUNX1	SID135620759	0.464	1	-0.0479	inactive
CLK4	SID56478876	0.464	1	-0.026	inactive
BRD4	SID152154839	0.464	1	-0.0479	inactive
PIK3CB	SID56478474	0.464	1	-0.0366	inactive
PRKAR2B	SID56479179	0.464	1	0.083	inactive
MOK	SID56478889	-0.909	0.948	-0.0973	inactive
MAP3K14	SID135620705	-0.871	0.95	0.0116	inactive
CLK2	SID152151259	0.464	1	-0.0479	inactive
BCKDK	SID135620909	0.464	1	-0.0346	inactive
LATS1	SID56478819	0.464	1	-0.0479	inactive
MED24	SID152152726	0.464	1	-0.0479	inactive
SRPK2	SID56478890	0.464	1	-0.0479	inactive
HIPK4	SID135620890	0.464	1	-0.0479	inactive
CSNK1G3	SID152152817	0.464	1	-0.0479	inactive
CMPK1	SID56478766	0.464	1	-0.0479	inactive
PEAK1	SID152152075	-0.927	0.947	-0.098	inactive
CDK5	SID56478599	0.249	0.992	-0.0556	inactive
TRIO	SID56478974	-0.281	0.972	-0.0709	inactive
NR4A2	SID134309878	0.464	1	0.0589	inactive
ZC3H11A	SID135624155	0.464	1	-0.0479	inactive

Reprinted from the listing (8 entries):
gene	PubChem SID	viability z-score, knock-down alone	viability vs control, knock-down alone (fraction of control)	synergy score with trametinib	outcome
DUSP21	SID134312829	0.464	1	-0.0391	inactive
CDKN2C	SID56478606	-2.35	0.894	-0.0462	inactive
LTK	SID135620624	0.464	1	-0.0199	inactive
NUAK1	SID56478923	0.464	1	-0.0479	inactive
ITPKC	SID56479112	-0.105	0.978	-0.0263	inactive
PFKP	SID56479236	0.464	1	-0.0222	inactive
SLK	SID56478731	0.464	1	-0.0479	inactive
TEK	SID152152932	0.464	1	-0.0254	inactive
